Source: publication PMC11651612

T1: Cdc3-mCherry (C. neoformans) (UniProt J9VUF2)
T1 sequence: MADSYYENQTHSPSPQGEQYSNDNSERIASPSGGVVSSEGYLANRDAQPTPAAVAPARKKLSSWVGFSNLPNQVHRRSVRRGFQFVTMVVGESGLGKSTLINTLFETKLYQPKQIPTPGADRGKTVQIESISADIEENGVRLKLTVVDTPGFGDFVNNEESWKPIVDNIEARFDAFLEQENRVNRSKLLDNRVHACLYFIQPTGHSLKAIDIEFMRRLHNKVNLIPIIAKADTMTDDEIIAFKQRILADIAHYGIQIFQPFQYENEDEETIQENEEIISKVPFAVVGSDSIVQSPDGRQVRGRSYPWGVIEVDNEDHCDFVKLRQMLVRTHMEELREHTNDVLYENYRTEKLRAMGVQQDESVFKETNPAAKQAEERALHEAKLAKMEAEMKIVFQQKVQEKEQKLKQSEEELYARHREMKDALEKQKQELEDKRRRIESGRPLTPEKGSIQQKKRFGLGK


Target: T1, Cdc3-mCherry (C. neoformans)
Assay: affinity purification with mass spectrometry; mCherry-tagged septin captured from C. neoformans lysate on RFP-Trap agarose, 4 h at 4°C, washed with TBS with 2 M urea pH 7.5; GeLC-MS/MS; untagged H99 as negative control; hits logFC >2 and adjusted p <0.001 (text-named hits <0.05); exponential cultures at ~25°C or shifted to 37°C for 2 h; N = 5

Row | Binder | binding
1 | Histone deacetylation protein Rxt3 (T2BPP0) (protein, UniProt T2BPP0 1-1163) MHPYGKLPQPQGTSNATSPPLPTATPASGPPPNPLRPSYGLVTDRDRDRERQRNPYSYPSSLQRPDPPSSSSSSHSHQQRHQHHHHHHHHPSGASSAGSTPRDERTNPYAPPPPGASAGRKPDMLGVGLGAGLGRLSGGYGLFGNSPFREQEMRDRERQERIQRERERDLKPPVPTSPTQRASISTTPGNSYPRPSLPPSPTNTIRGGLPASNTVTSKPSISPQLPPASAGSASASAARPSLPLPNFSSLGSRSLPSPFERDTRERSASGSAHPSPAVPTTQEVPPAVGGHARSLSNSSAREIPGLSGNDRSPPKPSAPSTARSLYAGGPPPLSGSQGSRDREVQRSPVTRAPTAASPREPSRDNISPPVAASTAKPPSSQAPPASGSLSGAPTSGRGPYTSSYTYPSNPAYAGSFGGFGLSSFGGYGAFGGPRWDHEREREAREARDARERVEREGKRDEEDKRKKEIERQREKEREEREREKWKAVREQDQRERERRSSLSTPSAAPGSSVATARPPDPYRRNTGSFEGKPSSGYTRHIEVLNHPDPSAQPAAASQNATNPAYERETSVIQQVAPTREPRPYGYKPEPVARETPPVQPPIREPAVSQMPRESLSSTAGREPRPEREYYQTVPPSAPVIPPIPVNAPVQPPREKRSRMDAVVEDAQVAHQAQQAQRRSSQAKSKRRKLEEEKMTQAHHGMGHSHASYGNHNVHGRHSPVMDKRDFASLAQLPQKRVEVSSAPVEAWLKGLPSLSRVIGTIDYSGKPFTLVKTGLVKPENEGGLIIVRIGGGFLGRGWRVRGEPGWEDASTKQVGNVVCGAQDPERACWGTDVYTDDSDLGLILVHAGWIRWSALPSLRSPQDRKKDEQEFINVTVRLVPRLVRYIGTERNGLKTRGWGNGHDGSSVVVERVERVKIDRKYLASRKRKARISEWVHQRALVCPIPSSKQEDEKMKETILLTTTVPTESLILSAINVSGKDVTVTGAFKYSPDVLKGWLDVPIEGDELDKSLWGYKLILEGSGETYQISMNKESTYKYPLINLTQLLPSDTGPKEIFASHPASGIYLWDGGFAAQIQGEKGILFKVEKFKWEKLKEGEVGAWAKEVEEVVPAVEEIADDVPVEEEGESAPQGDHEMAVDIAEVNGANGINGHVHMKEEQMDVDG | binds
2 | Scramblase-domain-containing protein (protein, UniProt J9VV27 1-487) MLHRSITASALRVGTSHPILARSIATAVPLLRQQERLPRGHVRPTRRPIRQTLLPETDERSGASQSTAAHPHAFHAYEPFDPLSTPIHASGPVDIPPDPSGVLGDSHAAREILGHESLVIVRQLEMLNVFMGFEQANRYAIHSPDGQLVGFLAEQEQGILSTISRQALRTHRPFRSVVMDRHGKPVLWIRRPFAFINSRIFVHSSEDHDSRLVGEAQQQWHPWRRRYNLFQSRESETFRQFAKVDSGFLAWDFWLKDKDDRLLASINRNFRGIGRELFTDTGQYVIRFDAAGTELDLAPGSNINVQGQTLVLPRSSDSGLTLDQRAMTLATAVSIDFDYFSRHSGSGGLGFPFFFWGGGDGSAEAQSGGRPSDVQPSPDGGAGAAAGAAAGAAGTGGMTEDELIYGRQPAQQPGNPNNDPVPPPPPGESAGGWEQFPEGLEGYDEQSAGWEQDEVMQDPWGNQGDDSGWFGGWGGGGGGGDWGDWGQ | binds
3 | Homoserine O-acetyltransferase (protein, UniProt J9VIY8 1-528) MSDNTPTPQKNPDTNPYASLISQQIAIIPSFTLESGVTLNNVPVAYKTWGKLNEKADNCLVICHALTGSADVEDWWGPLLGLNKAFDPTRFFIFCGNVIGSPYGTISSVTTNPETGKPFGPEMPGSSVKDDVRLHYIILKSLGVRSVAAVVGGSMGGMTVLEYPLNTPPGFVRAIIPLATSARHSAWCISWGEAQRQSIYSDPDYKDGYYYEIEEEGGKVDLARQPARGLAAARMAALLTYRSRDSFESRFGRRAGGGKSSVPKGGVRIMGGQETTDPSVPSESDLAAKSPSWRAWREHNDGHRSAGARPISRSGSEGPAHREGDAAQAEVVKTQDVKANGNKIGTGGEAPPKIFSAQSYLRYQGDKFTGRFDANCYIHITRKLDTHDLSAPSRDTSLSSLSSGLPSSPDATEEELNARLIHALSLEPPALVIGIESDGLFTTSEQRELAAGIPDAELVVIPSPDGHDGFLLEFEAINGWVEGWLKRKMPEFYERRVINPEEYVQGEEGFGIKKESVFGEAEADVTRW | binds
4 | Glucosamine-6-phosphate isomerase (protein, UniProt J9VVN4 1-286) MRLTVRDTKEQVGNYIGDYIANRINSFVPTPEHKNFVLGLPTGSSPLPVYKRLVELYNEKKVSFKDVVTFNMDEYVGIPRDHPESYHTFMFKNFFSLIDINPNNTHVLNGEAEDLYQECEDYEASIKAVGGIDLFLGGIGADGHIAFNEPGSSLTSRTRIKTLAYETILDNCRFFNNDLSLVPRMALTVGVQTVMDAREVVLVVTGQNKSLALSQMIEGAVNHMVTASALQTHPWALVVCDEDATLELRVKTVKYFKSIEKVQDEVEAKYGPVASVRLGLRGPTAA | binds
5 | Methylenetetrahydrofolate reductase (protein, UniProt J9VMK3 1-633) MPHLTSLIAAHNGPFHNYEFFPPLTDPGFVNLLDRIRRLTSPPFQAPLAVSVTWGAGGSTAEKSLELAQQVVGMGVEVILHLTCTNMPKDKVDFALRRCKDLGISNILALRGDPPREEEYAINPTSTPDFFKHADDLVRYIRQTHGDYFCIGVAGYPNPHPDSESEEEDFKWFKAKCDAGADFIVTQLFYDVDVFLEWVKTCRAKGINQPIIPGIMPIQNYASFRRLVNLTKCPVPDSITSDLQPISSDDATVKRYGAELATKMVNQIIGSGLVPGVHFCTLNLEKSVRKILDNLGWSAASKASENEGVVKNKLIEDDSRAVNGIPINGKADTAQSPAKNLSISPSEANQLAQLGLTSTTLPPAPKTGLGAQGATGEDSWDEFPNGRFTDVRSPAYGEIDGWGSGLKITAAQALKEWGVPISTSDLSALFTAYLHSDPKHLTTPFCDLPLSPESHMILPHLLALNSAKVQHWTVGSQPAVDAARSEDEIVGWGPRGGYVFQKAFVEFFVTENEVNRLKEKVKKEGKGLITMYAANRKGDFKSNTDKDSVNAVTWGVFPGQEIAQSTIIEETSFLAWKEEAFDIWTEWSLLYPRNTPSRKLLEGIANEWWLVSLIHHDYKDQDALWRFLLEDLQ | binds
6 | DNA-directed RNA polymerase II subunit RPB4 (protein, UniProt J9VQ08 1-147) MAALPAHHRRQQIQEEDATKLQFGDFAEGEALTLTEVATLLKAARQAPNVPPAPDNKVYQSTTDYVNEFSNTTMDVSDSMRTALSARHGFLNKFEIAQIMSLRPERVEVAVALIPSLERYAQGDENEAQLQSLLDDVRAMVRYGVQP | binds
7 | Sec1-like protein (protein, UniProt J9VP42 1-766) MAHLASLSISPAMTRPSLLHAQTHALLTLLNLNNPPPAAPATAAGPFPRPSSPGTPFDDGAQRPLVWKVLILDDASQDVLATTLRVQDLREQGVTLHMQLHSARPPLADVPAVYFVSPTLANIRRIAEDLSPPLYASYYLAFTSSLPRSLLEELASLILSNDPSGQTGQLIASVTDQFLDFVVPSPNMFSLLPRRELKQDPDGTAGKGKKGKDAKEEWVEGRASYVVLNDPRATEVDIEEEVGRIAKGLFSVVTTMNMTPIIRCPRGNAAEMVARRLDAKLRDHIASTSSRNARDAYSVDALQRPLLAIMDRNIDLIPMLSHSWTYQALVSDVLDMKLNRVTVSSPENGRLTKKSYDIDSKDFFWAKNAGNPFPAVAEDIDTDLSKYKTDAAEITRSTGISDVNDVSQIDFTSNTANLKTAITALPELTARKQILDTHMNIATALLQSIKERGLDNLFQIEETAGKQTKATILSVLNGATDEPGQTASPSPLDQLRLVIIYFLSTQDGALSKEDLKELESVLKEHGADTRALEYVKKVRDIHRMSTLAVQPAVAAQSQSGGGGEWTRGFSALGNRITDRLREGGIPTVGLDNLISGVKSFLPARKDLTLTRLVEALMDPASASSQALQDTDDYLFFDPKTSRARPGHAGAGGAGGAGAGGAGGGGAGGGAGGPGGGRSQFSEGVVFVVGGGGYVEYGNLMDWANRSGGGGGRDGGGGGGGGAGGVGAGGAGAQGVTGQGGRKVTYGSTEILNPEKFLKSLEELGSV | binds
8 | Hepatocellular carcinoma-associated antigen 59-domain-containing protein (protein, UniProt J9VGU4 1-304) MFKKRSRPTSVRDKSRIEEAEGSGNEEKVASGSGTPIVEEEEDDDTGRTVEELLMLKKLKKAQSRQGIDLEKLNRGEEKKRKGKKKEDAAEKYGLQPGRGMGRGDGEKEKDEEMEDEAERAKRLVRVNNFTQQTNALDVDKHMMAYIEAELAKRRGQAAATTDESALEDNDPQAELYRIAEKYQFETRKKKADDEGNVTNSLGMLTSIPEVDLGMDNRLKNIEMTEKAKRDMLEQRKQEAAAAAAAAKEAEDPGYAAARFYRPNQKSASDIYANYEKRQTTGAPRQESATDEQVYERFKKRMKR | binds
9 | Transcription initiation factor TFIIF subunit beta (protein, UniProt J9VJG5 1-340) MSSPSGPSTTSPFSFLQEEEEHLEVSDRKDASSVWALKVPNFLLQRWQTVQEPGVELGRLVVDNSVTPPNITLKLTNAEEGTEEAERAKRAKYDVEGLPDEFKVEVPMERSKNTFLFSEVKKVYDKGSRDGRQQADAPRDAWGKRKREKAHPKLLARVDHEGHIQPIRTQKYLDFLKARRMEAEQSRRPVVRMEDTGLSQAEQNQLASGFRSANSTFGSNMILASKQASGERFARLERHELTDRIFQCFRDHPYWALGALKQTLEQPDAWLREVLRDVAEQVKEGQYQGYWQLKPVWREDAWKGGENGESVKNGVKEEGDVKPDIDEDDDEDEDDLEEVM | binds
10 | E2 ubiquitin-conjugating enzyme (protein, UniProt J9VQ05 1-220) MSDARLRRVQKEIKDCAKDKTSGIAIEMIDDNPFHLVGAFPGPPDTPYEGGYYEVDIQIPETYPFQPVKMKFITKVYHPNVSSASGAICLDILKDAWSPVLTLKSTLISLQSLLCEPIPSDPQDAQVAKHYLTDRNSFNDTAKHWAQAYAQAPAHKQQNARGEVATDAELAGLAEEHVVSFTDMGFSRDKVISVLRRRNYRGNNVNPATYNSCLEELLQG | binds
11 | Maintenance of telomere capping protein 1 (protein, UniProt J9VNZ4 1-475) MPPKGKKTKAEEALDFLSNLDNLDAPDTSSPPPTADATRDSTDSTRKSLSASRELPNKAAAKPTAEDEEAESALAFLNAQINQKRAKPLSDSRSGTPLSAAGSSAATGSASTSAPKPKTPATEPTNMPTGTPAPAQSSGGWGSFWSTATSALQSAQRVADEQYQKVKSEGVNGVTGQLESLRVNVKSVPGVDLSKLRKGAEERLGGFVRGVDLDKLRKDLVNTTSSTLTTILDTVAPPISEHETLELWLSHPMIGYAGVEGVIYRAWARILEQTESGELIIVWSPSPTPGDSSGEPRGINPVEGWDAAWELGKKEIAAIKAREEEKPRGRAEAKRNMPVTTVPIFLHLQPLLVRLPYAEPPIHSSTSIQDKPFTPPNHLYFLFTLDDPTHSLTFTTVSQPTPSDWMDVEYENSEWVEERLVEVLRTGVEVIAQDYVATRMGLKPSAPQAAAVAALVEQANQEGENKAATDEKKSD | binds

No constants are given. Whether binding was seen depends on the method and setting. Binding seen in cells or lysates may run through a third protein. These calls come from enrichment with a bait or labelling near it, and not all partners need be listed. Tags and fused reporters may be left off the sequences shown.
